In patent publication US20140349310A1 one finds binding data, which are given here for one molecule.

For the experiment, the target named is cynomolgus monkey c-Met expressed on NIH 3T3 cells (cynomolgus monkey). Briefly: FACS on live cells.

Results are given in words; binding and its absence hold for the method and conditions named. Some binding calls cover weakened binding; strength is not graded here.

B1: anti-c-Met monoclonal antibody OptD11 (mouse IgG1 subtype) (antibody, V domains shown)
VH: EVQLQQSGPELVKPGASVRISCKASGYTFTSRYIHWMKQRPGQGLEWIGWIYPVTGDTYYNEKFKGKATLTSDKSSSTAYMQISSLTSDDSAVYFCARGGGMFYYWGQGTLVTVSA
VL: ETTVTQSPALMAASPGEKVTITCSVSSSISSTNLHWYQQKSETSPKPWIYGTSNLASGVPVRFGGSGSGTSYSLTISSMEAEDAATYYCQQWSSYPYTFGGGTKLEIKR
For B1, the binding result is given as “binds”.
